# Measurements: PubChem BioAssay AID1347423 (Functional Genomics Laboratory (NCATS/FGL), 2020)
# In all, about 52,000 sequences went through this assay and about 210 (0.4%) were called active.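 How the source made its calls: active means gene whose silencing raises cell survival under the drug, median off-target-corrected z-score across its silencing RNAs 2 or more; inactive means the rest.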 The list shows a part of the results.
# Assay: Resistance to Poly (ADP-Ribose) Polymerase inhibitor: Gene Identification via Genome-wide siRNA Screen
# Conditions: mouse BRCA2 R2336H ES cells, olaparib, CellTiter-Glo viability; active compounds read high
# Outline: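 Mouse BRCA2 R2336H ES cells were reverse-transfected with siRNA (20 nM final), treated at 48 h with 500 nM olaparib, and read by CellTiter-Glo after 72 h. Scores: MAD-based z per siRNA, median per gene, seed off-target correction.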
row,Sequence,z-score
1,GGCUGUUAAUGCAAAAAAATT against Ern2,inactive: 0.523
2,GGUUCUUCCAAAUGAUCCATT against Ccnh,inactive: -0.631
3,GGGAUGAAGUUUGAGGACGTT against Mrps11,inactive: -2.07
4,GCUGACCAUUUUGAUGCCCTT against AL024210,inactive: -1.57
5,GCAAGGAAGGAUAUUACACTT against Mmp24,inactive: -0.584
6,GGCUAAAACUGCACAUAAATT against BC027061,inactive: -0.0896
7,GUGAUGCGCAUUUCGAGUCTT against Sf3b5,inactive: 1.17
8,CCAGUAUGUCUGUAAGUGATT against Wnt5b,inactive: 0.727
9,GCUGGGUGAAUAAUGUUAATT against Sytl2,inactive: 0.522
10,GGACUGGUACAAGACAAUGTT against 9430041O17Rik,inactive: 0.722
11,GGUGAAAAAAGGAAGCAAATT against Senp6,inactive: -1.05
12,GGAGAUCUCCUCAGCCACATT against Gemin4,inactive: 0.455
13,GGCAGAAGGCAAAGAAAGGTT against Cyp3a11,inactive: -0.643
14,GGAAGGAAGUCUCAACUCGTT against Lhx5,inactive: 1.3
15,ACGGUACUCAGUGCAAGCATT against Scarf1,inactive: 0.0589
16,GGAAAAUAGGGCGACAAAUTT against Tdrd7,inactive: 0.537
17,GGAACCUUUCAGAAAUAUATT against BB146404,inactive: -0.713
18,GGUGACAAGCGGAUCUUUCTT against Kcne1,inactive: -0.578
19,GGUCUUCAAUUUCUUCAAATT against 4930430F08Rik,inactive: 0.0902
20,CAUACCUCCACUACUCAAGTT against Olfr1113,inactive: -0.43
21,GGUGCUCAUGCAGGUCCAUTT against Slc25a25,inactive: -1
22,GGGAGUUUGGCAACUACCUTT against Fkbp6,inactive: 0.502
23,GGGUAACUGGAUAGGAGAATT against Pi15,inactive: -0.669

# In another format: entries from further up.
row	Sequence	z-score
10	GGACUGGUACAAGACAAUGTT against 9430041O17Rik	inactive: 0.722
11	GGUGAAAAAAGGAAGCAAATT against Senp6	inactive: -1.05
13	GGCAGAAGGCAAAGAAAGGTT against Cyp3a11	inactive: -0.643
17	GGAACCUUUCAGAAAUAUATT against BB146404	inactive: -0.713

# Carrying on:

row,Sequence,z-score
1,GCCUAAUGUCAACAUGAAGTT against Elp4,inactive: 1.97
2,GGAAUUCUUCUACUUUCAATT against Tpd52l1,inactive: -0.12
3,GGGAAUUGCUCAAAGUAAATT against Nqo1,inactive: 0.3
4,GGUCUGGAGCCAGAACUCUTT against 4632406N01Rik,inactive: -1.09
5,GGAAAGGAGUCUGCCAGCUTT against Tef,inactive: -1.72
6,GGACCUGGAGAAAUUGAAGTT against Nalp6,inactive: 1.1
7,GGAGUACAUAGCUAAUGUGTT against Lemd2,inactive: -0.932
8,GCAUGCCUCUCUCAAGUCUTT against Olfr849,inactive: -0.179
9,GGAAGCCUAUGAACUUAAUTT against Zfp180,inactive: 0.534
10,CCAAGUGCUAAACAAGACATT against 4930458L03Rik,inactive: -0.00649
11,GUAGUAAUAUCAUGGGCCUTT against Olfr339,inactive: -0.595
12,GAUUAGCAUCCAUGAACACTT against Tcl1b2,inactive: 0.639
13,GGAAGAGGCUGAGAAGCUATT against Pabpn1,inactive: -1.37
14,GGAGUUCCAGCAGCUCUAUTT against Vsnl1,inactive: -0.608
15,GUGCCACGACGGUUUUUUCTT against Avp,inactive: 0.415
16,GCCUUUUAUAUAGAAGACCTT against C920005C14Rik,inactive: 0.63
17,GGAGGAAAAAAGGAUCCUGTT against Map3k2,inactive: -0.439
18,CCUACGACAACUCAGACCUTT against 1110006O17Rik,inactive: 0.557
19,GCAUGGUAUUAGAUGAUGATT against Nexn,inactive: -1.8
20,GAGUGUGCAUUUUGUUAGUTT against Olfr136,inactive: 0.517
21,GCCUUUGUGAGGAUUAAACTT against MGC27770,inactive: -0.295
22,GCAGGUGACGUGAGGUUAATT against Zfp276,inactive: -2.76
23,CCUCUCUGAAUUGGUUAAUTT against 2900024C23Rik,inactive: -1.91

row,Sequence,z-score
1,GGAUUUUUCUAGCAAGUUGTT against 1200009B18Rik,inactive: 0.639
2,GGCAAAUGGAUCUUUAUAATT against 5630401D24Rik,inactive: -0.155
3,GGCCCAAGAGAUUGAUCAATT against Ivd,inactive: -0.831
4,GGAGGAGAGCAUUCCCAUUTT against Ddx6,inactive: -0.363
5,GUUACCUCUGUGUUGUACUTT against Olfr60,inactive: -0.495
6,CCUGUUAUGACCGUUCAUGTT against Prpf4,inactive: 0.582
7,GCAAGUAAGACGGAACCCUTT against Ddx28,inactive: 0.796
8,GGUUUUUGGGAAUUGGCUUTT against Sfxn5,inactive: 0.418
9,GGAUCCUCAGAUGAGUAUGTT against Ror1,inactive: -1.68
10,GGACAAAGAAGGCAAGCAUTT against Mecp2,inactive: 0.573
11,GGUACACCUUGUUGGAAUUTT against Eif5a2,inactive: -1.17
12,GGAGAAGGAUUAUACCAGUTT against AI256775,inactive: -0.139
13,GGUAUUUCUUUGUGGUGCUTT against Ptch2,inactive: 0.908
14,GCCAAGUCAACCAUAGAAUTT against A930037J23Rik,inactive: -1.14
15,CCAGCUGGCAAGGUUAUGATT against Akap8,inactive: 0.81
16,GGAGUCAGUCCAGAUUCUGTT against Tgif,inactive: -1.34
17,GGAGAAAUCAAGCAAAGAUTT against Soat1,inactive: 0.362
18,GCCACUAGUAUUAUGCUUCTT against Fhit,inactive: 0.926
19,GGCUACACCUUACUAGUGGTT against LOC73072,inactive: -0.822
20,GGAGAGAAAAACUUCUGGUTT against Nfx1,inactive: -0.187
21,GGCUACAUGAGCUGGAGAATT against Insr,inactive: -0.509
